Results are given in words; binding and its absence hold for the method and conditions named. Some results given as binding are weak or reduced against the parent protein; the word gives no strength.
Tests used:
[1] = target: T1, Full-length human ADAM8 on cells (HEK293-ADAM8 stable or transfected cells; also endogenous ADAM8 of breast cell lines and PDX tumors) (human) (UniProt P78325); experiment: IHC, control cell line microarray, ADP-optimized conditions, 1:100
T1 sequence: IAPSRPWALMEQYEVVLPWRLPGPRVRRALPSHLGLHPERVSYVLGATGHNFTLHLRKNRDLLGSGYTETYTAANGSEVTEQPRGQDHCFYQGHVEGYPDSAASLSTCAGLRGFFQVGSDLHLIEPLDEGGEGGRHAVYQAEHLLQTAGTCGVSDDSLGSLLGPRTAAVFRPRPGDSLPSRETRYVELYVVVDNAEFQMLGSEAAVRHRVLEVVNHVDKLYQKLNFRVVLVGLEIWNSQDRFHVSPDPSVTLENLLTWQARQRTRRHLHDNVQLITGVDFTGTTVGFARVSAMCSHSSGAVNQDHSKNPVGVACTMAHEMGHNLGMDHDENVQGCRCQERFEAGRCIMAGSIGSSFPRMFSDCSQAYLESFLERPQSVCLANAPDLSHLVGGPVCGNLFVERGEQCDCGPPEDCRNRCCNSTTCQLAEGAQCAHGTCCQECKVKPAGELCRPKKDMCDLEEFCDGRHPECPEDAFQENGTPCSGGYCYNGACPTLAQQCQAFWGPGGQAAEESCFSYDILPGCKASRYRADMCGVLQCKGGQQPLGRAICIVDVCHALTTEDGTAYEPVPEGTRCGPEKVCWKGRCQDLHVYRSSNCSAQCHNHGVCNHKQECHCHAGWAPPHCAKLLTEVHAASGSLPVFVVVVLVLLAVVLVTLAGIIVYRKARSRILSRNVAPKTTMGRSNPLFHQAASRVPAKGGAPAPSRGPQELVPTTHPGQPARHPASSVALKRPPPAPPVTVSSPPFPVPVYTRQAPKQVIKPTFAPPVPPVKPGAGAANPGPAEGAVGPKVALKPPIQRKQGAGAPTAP

[2] = target: T2, Remnant form of human ADAM8 on HEK293 cells (HEK293-remnant-ADAM8) (human) (UniProt P78325); experiment: FACS, HEK293 cells with remnant ADAM8
T2 sequence: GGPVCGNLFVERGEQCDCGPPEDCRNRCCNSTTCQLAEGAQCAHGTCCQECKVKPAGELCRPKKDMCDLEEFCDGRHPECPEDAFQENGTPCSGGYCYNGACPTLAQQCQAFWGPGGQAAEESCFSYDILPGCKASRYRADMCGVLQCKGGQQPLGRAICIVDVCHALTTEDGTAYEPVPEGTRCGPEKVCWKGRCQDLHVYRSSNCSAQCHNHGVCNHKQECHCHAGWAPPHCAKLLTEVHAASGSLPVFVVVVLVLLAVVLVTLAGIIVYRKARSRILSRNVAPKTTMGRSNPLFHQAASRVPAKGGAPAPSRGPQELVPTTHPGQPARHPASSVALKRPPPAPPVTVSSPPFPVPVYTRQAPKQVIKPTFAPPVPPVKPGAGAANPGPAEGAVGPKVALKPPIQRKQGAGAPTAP

[3] = target: T1, Full-length human ADAM8 on cells (HEK293-ADAM8 stable or transfected cells; also endogenous ADAM8 of breast cell lines and PDX tumors) (human); experiment: IHC on breast control cell line microarray, ADP-optimized conditions, 1:100; IHC, newly optimized ADP-specific conditions; staining barely detectable
[4] = target: T1, Full-length human ADAM8 on cells (HEK293-ADAM8 stable or transfected cells; also endogenous ADAM8 of breast cell lines and PDX tumors) (human); experiment: FACS, unfixed and paraformaldehyde-fixed HEK293-ADAM8 cells; FACS, HEK-A8-2D cells, native/unfixed and fixed (FIG. 41A)
[5] = target: T1, Full-length human ADAM8 on cells (HEK293-ADAM8 stable or transfected cells; also endogenous ADAM8 of breast cell lines and PDX tumors) (human); experiment: FACS, HEK293 cells with EV, full-length or remnant ADAM8; FACS, HEK293 cells stably expressing full-length ADAM8 (FIG. 33B)
[6] = target: T3, Recombinant human ADAM8 (rHuADAM8) ectodomain protein (aa 17-497), ACRO Biosystems AD8-H5223 (human) (UniProt P78325); experiment: ELISA, recombinant ADAM proteins
T3 sequence: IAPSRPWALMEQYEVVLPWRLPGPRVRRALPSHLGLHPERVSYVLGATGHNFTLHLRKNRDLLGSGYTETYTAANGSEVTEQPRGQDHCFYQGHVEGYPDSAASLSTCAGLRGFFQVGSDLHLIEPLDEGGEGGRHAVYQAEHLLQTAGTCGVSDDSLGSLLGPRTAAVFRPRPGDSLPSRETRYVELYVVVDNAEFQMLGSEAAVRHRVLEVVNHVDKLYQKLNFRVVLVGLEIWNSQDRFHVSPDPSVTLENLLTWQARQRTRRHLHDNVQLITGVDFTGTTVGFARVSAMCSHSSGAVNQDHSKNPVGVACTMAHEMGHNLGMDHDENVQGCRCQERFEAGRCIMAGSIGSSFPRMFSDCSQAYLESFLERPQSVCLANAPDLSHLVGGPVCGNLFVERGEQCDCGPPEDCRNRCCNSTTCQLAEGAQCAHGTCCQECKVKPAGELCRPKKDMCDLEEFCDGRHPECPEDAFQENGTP

[7] = target: T1, Full-length human ADAM8 on cells (HEK293-ADAM8 stable or transfected cells; also endogenous ADAM8 of breast cell lines and PDX tumors) (human); experiment: FACS, HEK293-ADAM8 cells, unfixed and paraformaldehyde-fixed
[8] = target: T2, Remnant form of human ADAM8 on HEK293 cells (HEK293-remnant-ADAM8) (human); experiment: FACS, stable HEK293 cells
[9] = target: T1, Full-length human ADAM8 on cells (HEK293-ADAM8 stable or transfected cells; also endogenous ADAM8 of breast cell lines and PDX tumors) (human); experiment: FACS, stable HEK293 cells
[10] = target: T2, Remnant form of human ADAM8 on HEK293 cells (HEK293-remnant-ADAM8) (human); experiment: FACS, HEK293 cells with remnant ADAM8, 2 µg antibody

Measured: binding

B1: ADP3 (antibody, IgG1, V domains shown)
VH: EVKLEESGGGLVQPGGSMKLSCAASGFTFSDAWMDWVRQSPEKGLEWVAEIRGKVNNLATYYVESVKGRFTISRDDSKSSVYLQMNSLRAEDTGIYYCLGRYDATYAMDYWGQGTSVTVSS
VL: DVVMTQTPLSLPVSLGDQASISCRSSQSLVHSDGNTYLHWYLQKPGQSPKLLIYKLSNRFSGVPDRFSGSGSGTDFTLKISRVEAEDLGVYFCSQSTHVPWTFGGGTKLEIK
binds: [1] | [2] | [3] | [4] | [5] | [6] | [7] | [8] | [9]

B2: ADP13 (antibody, IgG1, V domains shown)
VH: EVQLQQSGPEMVKPGTSVKISCKASGYTFTDYYINWVKQSHGKSLEWIGDISPNIGGATYNPKFKGKAILTVDKSARTAYMELRSLTSEDSAVYCCTRGGSSYPYFYAMDYWGQGTSVTVSS
VL: DIVMSQSPSSLAVSVGEKVTMSCKSSQSLLYSSNQKKYLAWYQQKPGQSPKLLIYWASTRESGVPDRFTGSGSGTDFTLTISSVKAEDLAVYYCQQFYSYPYTFGGGTKLEINR
notes: also called mADP13; mouse ADP13
binds: [10] | [2] | [8]

B3: ADP2 (antibody, V domains shown)
VH: EVKLVESGGGLVQPGGSLSLSCAASGFSFPDYYMSWVRQPPGKALEWLGFIRDSANGYTTEYIASVKGRFTFSRDNSQSILYLQMNALRAEDSATYYCARYSRYYGMDYWGQGTSVTVSS
VL: SIVMTQTPKILLVSAGDRVTITCKASQTVNYDVAWYQQKPGQSPKPVIYFASNRYTGVPDRFTGSGFGTDFTFTISTVQAEDLAVYFCQQDYSAPWTFGGGTKLEIK
notes: also called mADP2; mouse ADP2
binds: [10] | [2] | [8]

— patent US20220227882A1 (TRUSTEES OF TUFTS COLLEGE, published 2022)
